# Source: PubChem BioAssay AID493014 (National Center for Advancing Translational Sciences (NCATS), 2011)
# The other results are listed elsewhere or left out. Shown are side measurements of this screen, not its main read-out; they come without a call. Compounds called inactive in the main read-out are mostly missing here. Words in brackets tell the shape of the fitted curve; partial curves, single points and poor fits give uncertain potencies.
# Experiment: qHTS Assay to Find Inhibitors of Chronic Active B-Cell Receptor Signaling
# Details: ABC-DLBCL IkBa-CBG/CBR reporter, luminescence ratio (green luciferase fused to IkBa over red control in TMD8 lymphoma cells), 4 h
# Summary of the method: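 Cell line TMD8 (human ABC DLBCL), stably expressing tet-inducible CBG68-IkBa fusion and CBR; IMDM/0.5% FBS; cpd up to 46 uM; dox induction, 4 h, 37C/5% CO2; dual luminescence; green/red ratio; MG132 control.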
# [1] = measured here: CBR red luminescence, cell number
# [2] = measured here: IkBa-CBG green luminescence
SMILES,AC50 [1],AC50 [2]
CCOC(=O)c1nc(NCc2ccccc2)sc1C,"35.5 µM [falling, single point]",–
Cc1ccc(S(=O)(=O)Nc2ccc(Br)cc2/C=N/n2cnnc2)cc1,"4.47 µM [rising, partial curve, poor fit]",–
Nc1nc(N2CCN(c3ccccn3)CC2)nc2ccccc12,"0.355 µM [rising, full curve]",–
COc1cccc(C(=O)NNC(=O)c2cccc(F)c2)c1,"10 µM [falling, partial curve]",–
CC(=O)Nc1cccc(OCCCOc2ccc([N+](=O)[O-])cc2)c1,"12.6 µM [rising, partial curve, poor fit]",–
COc1ccccc1CNCC(c1ccccc1)c1ccccc1,"31.6 µM [falling, single point]",–
Clc1cccc(Cl)c1-c1noc(-c2ccno2)n1,"11.2 µM [rising, single point]",–
CCOC(=O)c1cccc(NC(=O)c2ccc(N(C)C)cc2)c1,"4.61 µM [falling, full curve]",–
O=C(Cn1c2c(c(-c3ccccc3Cl)cc1=O)CCC2)NCC1CCCO1 (stereo not drawn),"4.47 µM [rising, single point]",–
COC(=O)c1c(NC(=O)CSc2nc3ccccc3c(=O)n2Cc2ccco2)sc(C)c1C,"4.11 µM [falling, full curve, poor fit]",–
COc1ccc(-c2[nH]ncc2CN(CCO)Cc2cccs2)c(F)c1,"6.31 µM [falling, single point]","5.01 µM [rising, partial curve, poor fit]"
COc1ccc(NC2=CC(=O)CC(c3ccccc3)C2)cc1 (stereo not drawn),"0.282 µM [rising, full curve, poor fit]",–
O=C(N/N=C/c1ccoc1)c1cc(O)cc(O)c1,"10 µM [falling, partial curve, poor fit]",–
COc1ccccc1-c1sc2cc3c(cc2c1-c1ccc(OCCN2CCOCC2)cc1)OCO3,–,"16.4 µM [falling, partial curve, poor fit]"
CSCCC(NC(=O)c1ccc(Cl)cc1)C(=O)NC(C)(C)C (stereo not drawn),"29.1 µM [falling, single point]",–
COc1ccc(Nc2cc(C(=O)NCc3ccccn3)c3ccccc3n2)c(OC)c1,"6.31 µM [falling, full curve]",–
Cn1c(=O)[nH]c(Nc2ccc(F)cc2)c([N+](=O)[O-])c1=O,"29.1 µM [falling, single point]",–
CSCC[C@H](N)C(=O)NC[C@H]1O[C@@H](n2cnc3c(N)ncnc32)[C@H](O)[C@@H]1O,"13 µM [rising, partial curve, poor fit]",–
CC(=O)c1cccc(NC(=O)c2ccc(N(Cc3ccc(C)cc3)S(C)(=O)=O)cc2)c1,"8.2 µM [falling, partial curve, poor fit]",–
O=c1c2c(nc3cc(-c4ccc(F)cc4)[nH]n13)CCCC2,"10 µM [falling, partial curve, poor fit]",–
COc1ccc2c(c1)c1ccccc1n2C,"29.1 µM [rising, single point]",–
CNC[C@@H](C)NC[C@@H](Cc1ccccc1)NCCc1ccccc1,"35.5 µM [falling, single point]",–

SMILES,AC50 [1],AC50 [2]
CCOC(=O)c1ccc2nc(Nc3nc4ccc(F)cc4s3)sc2c1,"0.0517 µM [falling, full curve]",–
CCCc1cc(=O)[nH]c(SCc2csc(-c3ccccc3)n2)n1,"29.1 µM [falling, single point]",–
O=C(CCCN1C(=O)/C(=C\c2ccccc2)SC1=S)Nc1ccccc1O,"3.55 µM [falling, partial curve, poor fit]",–
COc1ccccc1C(=O)NCCC(=O)NC1CCC(C)CC1 (stereo not drawn),"29.1 µM [falling, single point]",–
Cc1ccccc1C(=O)NNC(=O)c1cc(N)cc([N+](=O)[O-])c1,"14.6 µM [falling, single point]",–
CCOC(=O)c1cc(OC(=O)c2cccc([N+](=O)[O-])c2)n(-c2ccccc2)n1,"0.82 µM [falling, full curve, poor fit]",–
CC(Cc1ccc(Cl)cc1)N1CCC(n2nccc2NC(=O)C2CCCC2)CC1 (stereo not drawn),"11.2 µM [falling, partial curve]",–
Clc1ccc(/C=N/Nc2nc(Cl)nc3ccccc23)cc1,"0.501 µM [falling, full curve, poor fit]",–
O=C(Nc1cnn(Cc2ccccc2)c1)c1nc2ncccn2n1,"35.5 µM [falling, single point]",–
CCOC(=O)CN(C(=O)COC(=O)C1(c2ccccc2)CC1)c1ccc(F)cc1,"1.3 µM [falling, full curve]",–
O=C(Cc1ccc(-n2c(=O)c3ccccc3n(Cc3ccccc3F)c2=O)cc1)NCC1CCCO1 (stereo not drawn),"10.3 µM [rising, partial curve, poor fit]","5.8 µM [falling, partial curve]"
COc1ccc(NC(=O)C2CC(=O)N(c3cc(C)ccc3C)C2)cc1 (stereo not drawn),"23.1 µM [rising, partial curve, poor fit]",–
COc1ccc(NCc2ccc(OC)c(OC)c2)cc1,"7.08 µM [rising, partial curve]",–
O=C(Nc1ccccc1C(=O)NCCCn1ccnc1)c1ccccc1,"0.116 µM [falling, full curve, poor fit]",–
COc1cccc(/C=C2\SC(=S)N(N3CCOCC3)C2=O)c1OC,"14.6 µM [rising, single point]",–
Cc1nc(N2CCN(c3ccccc3O)CC2)c2c(-c3ccccc3)csc2n1,"20 µM [falling, single point]",–
CN(C)N=Nc1nc2c(c(=O)n(C)c(=O)n2C)n1C,"3.98 µM [falling, full curve]",–
CC1(C)CC(NC(=O)c2cc(S(=O)(=O)N3CCCCC3)ccc2Cl)CC(C)(C)N1,"0.794 µM [rising, full curve, poor fit]",–
COc1c(Br)cc(/C=N/n2c(-c3ccccc3)n[nH]c2=S)c(O)c1Br,"22.4 µM [falling, partial curve]",–
CC(C)n1cc(-c2ccc(Cl)cc2)cc(C#N)c1=O,"2.06 µM [rising, full curve, poor fit]",–
Cc1ccc(NC(=O)c2ccc3c(c2)OCCO3)nc1,"11.6 µM [falling, partial curve]",–
COc1ccc2c(c1)C(c1cccs1)=NNC(c1cccnc1)=N2,"11.2 µM [falling, partial curve]",–

# Three consecutive records already listed:
SMILES,AC50 [1],AC50 [2]
O=C(CCCN1C(=O)/C(=C\c2ccccc2)SC1=S)Nc1ccccc1O,"3.55 µM [falling, partial curve, poor fit]",–
COc1ccccc1C(=O)NCCC(=O)NC1CCC(C)CC1 (stereo not drawn),"29.1 µM [falling, single point]",–
Cc1ccccc1C(=O)NNC(=O)c1cc(N)cc([N+](=O)[O-])c1,"14.6 µM [falling, single point]",–

# Remaining list, next part:

SMILES,AC50 [1],AC50 [2]
O=C(NC1CCCC1)C(c1cccs1)N(Cc1ccco1)C(=O)c1csnn1 (stereo not drawn),"20.6 µM [falling, single point]",–
COc1ccc(CCNC(=O)c2ccc(SC)cc2OC)cc1,"31.6 µM [falling, single point]",–
COc1ccc(CNc2nc(NCc3ccc(OC)cc3)c3ncn(C4CCCC4)c3n2)cc1,"8.2 µM [rising, partial curve]","4.61 µM [falling, full curve]"
O=[N+]([O-])c1ccc(Sc2cccc[n+]2[O-])c2nonc12,"7.08 µM [falling, partial curve, poor fit]",–
O=C(/C=C/c1cccs1)Nc1nc(-c2ccccc2)cs1,"9.2 µM [falling, partial curve, poor fit]",–
Cc1cc(C(=O)Nc2cccc3ccccc23)co1,"7.94 µM [falling, partial curve, poor fit]",–
COc1cc(C(=O)N2CCC(C(=O)Nc3cccc(C(C)=O)c3)CC2)cc(OC)c1OC,"7.94 µM [rising, partial curve]",–
O=C(O)c1ccc(-n2nnnc2Oc2ccccc2C(=O)N2CCOCC2)cc1,"20.6 µM [rising, partial curve, poor fit]",–
Cc1cc(=O)n2c3ccccc3n(CC(O)CN3CCCC3)c2c1C#N (stereo not drawn),"6.31 µM [rising, full curve, poor fit]",–
COc1ccc(S(=O)(=O)N2Cc3ccccc3CC2C(=O)O)cc1 (stereo not drawn),"6.51 µM [rising, single point]",–
N#Cc1ccccc1S(=O)(=O)N1CCN(C(=O)C2COc3ccccc3O2)CC1 (stereo not drawn),"2.06 µM [rising, full curve, poor fit]",–
CC(=O)NC1CC2CCCC(C1)N2CC(=O)N1CCCc2ccccc21 (stereo not drawn),"29.1 µM [rising, single point]",–
CN(C(=O)c1ccncc1)c1nnc(-c2ccncc2)s1,"25.9 µM [rising, single point]",–
COc1cc(/C=C2\SC(=S)N(Nc3ccccc3)C2=O)cc(OC)c1OC,"20 µM [falling, single point]",–
NC(=S)N/N=C\c1ccc(-c2cccc(Cl)c2Cl)o1,"5.17 µM [rising, full curve, poor fit]","3.66 µM [falling, full curve]"
CC(O)CNCCCOc1ccc(Cl)cc1C(C)(C)C (stereo not drawn),"35.5 µM [falling, single point]",–
COc1cccc2c(=O)n(CC(=O)N3CCCCCC3)ccc12,"29.1 µM [falling, single point]",–
CCc1ccccc1OCC(=O)Nc1ccc(S(N)(=O)=O)cc1,"1.16 µM [falling, full curve, poor fit]",–
CC(=O)O/N=C/c1c(N2CCOCC2)n(C)c2ccccc12,"11.2 µM [falling, partial curve]",–
O=C(COc1ccccc1[N+](=O)[O-])Nc1ccc2c(c1)CCC2,"3.26 µM [rising, partial curve, poor fit]",–
